# End groups of sequences in plain letters are not given here. [ ]: non-standard residue; d: D form. Nle = CCCC[C@H](N)C(=O)O
# Test: general procedure: Fmoc solid-phase peptide synthesis; Rink-Amide-MBNA; HCTU/DIPEA
# Settings: whole synthesis
Substance,final purity (method not given) [%],isolated yield [%]
Ac-KLQLVLAPLHSLAS-NH2,>98,
GSLLVHSFQQLG,,9.7
H-CKLQLVLAPLHSLAS-NH2,>90,
H-H(DabN3)YFLLGH-NH2,>99,
H-HMYFLLGH(Ahx)(LysDOTA)-NH2,>95,
H-HMYFLLGH(Ahx)(LysN3)-NH2,>99,
H-HMYFLLGH-NH2,>99,
H-H[Nle]YFLLGH-NH2,>99,
H-h(DabN3)YFLLGH-NH2,>99,
H-h(Nle)YFLLGH-NH2,>99,
H-hMYFLLGH-NH2,>99,
HMYFLLGH,,9.8

# Source: US9789213B2 (LONDON HEALTH SCIENCES CENTRE RESEARCH INC., priority 2012, dated 2017)
